Test results taken from the supplement of paper PMC10849652.
Some of the results follow.

Amino acid sequences for entries named in this document (tags omitted). A change or cut given only in a name is not applied to a line headed by its entry.
UniProt Q9NX02: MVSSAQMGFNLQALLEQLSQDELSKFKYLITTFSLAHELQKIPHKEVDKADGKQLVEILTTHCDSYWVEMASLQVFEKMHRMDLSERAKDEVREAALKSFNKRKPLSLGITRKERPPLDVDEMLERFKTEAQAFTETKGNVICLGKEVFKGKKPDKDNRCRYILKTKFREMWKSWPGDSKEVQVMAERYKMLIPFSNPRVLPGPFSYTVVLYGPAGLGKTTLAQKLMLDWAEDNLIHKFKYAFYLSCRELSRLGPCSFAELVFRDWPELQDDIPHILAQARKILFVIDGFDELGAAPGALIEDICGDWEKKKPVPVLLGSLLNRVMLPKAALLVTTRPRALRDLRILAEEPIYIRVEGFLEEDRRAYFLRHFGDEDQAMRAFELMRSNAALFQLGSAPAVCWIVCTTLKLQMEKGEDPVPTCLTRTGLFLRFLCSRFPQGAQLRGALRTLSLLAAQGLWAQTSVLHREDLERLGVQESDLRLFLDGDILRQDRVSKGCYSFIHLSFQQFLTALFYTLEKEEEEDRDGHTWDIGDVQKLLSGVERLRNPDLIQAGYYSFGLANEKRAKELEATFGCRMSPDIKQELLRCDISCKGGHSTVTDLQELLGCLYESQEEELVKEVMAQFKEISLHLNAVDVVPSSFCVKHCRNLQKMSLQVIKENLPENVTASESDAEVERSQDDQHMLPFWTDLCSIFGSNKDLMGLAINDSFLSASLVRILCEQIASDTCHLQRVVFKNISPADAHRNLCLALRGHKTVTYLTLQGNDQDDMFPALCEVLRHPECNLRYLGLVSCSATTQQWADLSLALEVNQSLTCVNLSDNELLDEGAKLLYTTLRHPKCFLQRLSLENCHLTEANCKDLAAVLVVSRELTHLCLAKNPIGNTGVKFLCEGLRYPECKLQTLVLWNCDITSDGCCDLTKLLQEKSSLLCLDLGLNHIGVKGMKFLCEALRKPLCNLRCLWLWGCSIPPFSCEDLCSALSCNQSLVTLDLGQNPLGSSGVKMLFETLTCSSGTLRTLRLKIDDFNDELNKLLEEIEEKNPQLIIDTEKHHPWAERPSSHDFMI
UniProt P10588: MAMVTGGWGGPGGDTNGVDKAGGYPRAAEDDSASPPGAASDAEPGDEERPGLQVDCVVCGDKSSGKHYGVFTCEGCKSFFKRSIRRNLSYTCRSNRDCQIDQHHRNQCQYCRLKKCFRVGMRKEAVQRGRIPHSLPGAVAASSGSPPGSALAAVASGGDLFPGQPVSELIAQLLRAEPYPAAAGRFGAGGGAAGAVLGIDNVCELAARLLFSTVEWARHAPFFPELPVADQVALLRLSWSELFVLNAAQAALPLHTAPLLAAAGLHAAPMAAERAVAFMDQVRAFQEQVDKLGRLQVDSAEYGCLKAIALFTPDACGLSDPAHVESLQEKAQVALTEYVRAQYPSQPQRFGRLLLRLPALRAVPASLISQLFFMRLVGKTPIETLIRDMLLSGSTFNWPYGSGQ
UniProt Q9UNZ2: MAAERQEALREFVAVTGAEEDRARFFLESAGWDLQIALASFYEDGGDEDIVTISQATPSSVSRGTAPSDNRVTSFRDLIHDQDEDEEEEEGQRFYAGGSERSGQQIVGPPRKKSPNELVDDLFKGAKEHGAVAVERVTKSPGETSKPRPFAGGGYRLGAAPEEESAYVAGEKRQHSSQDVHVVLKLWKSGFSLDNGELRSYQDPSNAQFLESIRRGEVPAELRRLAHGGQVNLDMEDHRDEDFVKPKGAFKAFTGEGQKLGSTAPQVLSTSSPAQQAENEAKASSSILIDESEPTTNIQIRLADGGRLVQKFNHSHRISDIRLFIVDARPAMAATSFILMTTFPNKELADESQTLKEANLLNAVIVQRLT
UniProt P23511, whole entry, looked up: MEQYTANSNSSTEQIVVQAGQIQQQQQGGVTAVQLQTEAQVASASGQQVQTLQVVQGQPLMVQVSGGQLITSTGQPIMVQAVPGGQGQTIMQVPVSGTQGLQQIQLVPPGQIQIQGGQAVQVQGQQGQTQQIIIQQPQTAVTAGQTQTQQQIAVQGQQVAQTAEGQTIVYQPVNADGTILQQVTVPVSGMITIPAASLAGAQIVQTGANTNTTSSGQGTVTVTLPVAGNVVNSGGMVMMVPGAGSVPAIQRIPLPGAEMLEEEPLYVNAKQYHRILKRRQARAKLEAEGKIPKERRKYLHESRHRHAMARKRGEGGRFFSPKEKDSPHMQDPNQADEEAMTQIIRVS
UniProt Q9BXD5: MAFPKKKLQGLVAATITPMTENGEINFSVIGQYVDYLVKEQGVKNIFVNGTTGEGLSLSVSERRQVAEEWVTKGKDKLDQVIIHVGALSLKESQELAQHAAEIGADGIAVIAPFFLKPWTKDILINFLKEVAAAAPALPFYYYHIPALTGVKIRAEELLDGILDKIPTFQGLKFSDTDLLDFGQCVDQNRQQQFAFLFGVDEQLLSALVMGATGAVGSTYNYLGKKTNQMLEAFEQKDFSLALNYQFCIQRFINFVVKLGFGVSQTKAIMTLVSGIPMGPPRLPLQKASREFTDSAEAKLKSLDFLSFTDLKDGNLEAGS
UniProt Q9UMX5: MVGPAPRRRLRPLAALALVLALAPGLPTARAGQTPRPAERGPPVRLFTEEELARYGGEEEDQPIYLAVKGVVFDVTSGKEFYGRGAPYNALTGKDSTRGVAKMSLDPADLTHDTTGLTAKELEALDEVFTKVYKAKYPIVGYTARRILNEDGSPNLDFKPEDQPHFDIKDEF
UniProt O75414: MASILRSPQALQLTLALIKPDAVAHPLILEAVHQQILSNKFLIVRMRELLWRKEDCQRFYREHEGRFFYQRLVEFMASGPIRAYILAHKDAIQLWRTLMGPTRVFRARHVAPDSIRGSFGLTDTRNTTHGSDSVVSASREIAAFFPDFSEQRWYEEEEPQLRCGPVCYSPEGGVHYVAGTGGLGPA
UniProt Q8TD19: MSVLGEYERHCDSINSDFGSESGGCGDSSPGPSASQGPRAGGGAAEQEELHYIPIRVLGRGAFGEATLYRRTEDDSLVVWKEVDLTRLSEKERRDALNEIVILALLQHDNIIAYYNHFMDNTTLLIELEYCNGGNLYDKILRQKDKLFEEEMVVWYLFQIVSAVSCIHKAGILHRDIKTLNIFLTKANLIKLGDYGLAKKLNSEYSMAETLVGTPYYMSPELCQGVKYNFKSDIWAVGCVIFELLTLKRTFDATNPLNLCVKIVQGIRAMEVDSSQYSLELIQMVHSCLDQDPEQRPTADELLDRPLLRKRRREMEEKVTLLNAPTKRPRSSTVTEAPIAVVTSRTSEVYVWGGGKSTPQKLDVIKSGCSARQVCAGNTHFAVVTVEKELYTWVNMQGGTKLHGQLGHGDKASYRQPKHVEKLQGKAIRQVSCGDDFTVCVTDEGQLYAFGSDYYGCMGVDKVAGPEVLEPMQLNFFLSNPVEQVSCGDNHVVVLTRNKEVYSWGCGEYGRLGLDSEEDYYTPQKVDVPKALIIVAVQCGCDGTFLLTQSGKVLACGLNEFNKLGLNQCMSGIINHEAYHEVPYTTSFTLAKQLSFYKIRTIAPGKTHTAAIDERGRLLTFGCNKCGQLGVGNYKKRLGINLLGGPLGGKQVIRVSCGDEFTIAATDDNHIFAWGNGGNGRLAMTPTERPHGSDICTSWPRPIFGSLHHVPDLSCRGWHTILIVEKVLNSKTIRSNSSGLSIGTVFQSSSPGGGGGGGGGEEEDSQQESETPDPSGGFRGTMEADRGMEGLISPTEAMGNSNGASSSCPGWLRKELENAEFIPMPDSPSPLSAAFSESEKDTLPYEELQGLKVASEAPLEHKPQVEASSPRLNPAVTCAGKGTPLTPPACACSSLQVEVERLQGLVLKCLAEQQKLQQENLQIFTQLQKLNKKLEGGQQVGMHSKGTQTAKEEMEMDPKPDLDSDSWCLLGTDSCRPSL
UniProt Q8TDX7: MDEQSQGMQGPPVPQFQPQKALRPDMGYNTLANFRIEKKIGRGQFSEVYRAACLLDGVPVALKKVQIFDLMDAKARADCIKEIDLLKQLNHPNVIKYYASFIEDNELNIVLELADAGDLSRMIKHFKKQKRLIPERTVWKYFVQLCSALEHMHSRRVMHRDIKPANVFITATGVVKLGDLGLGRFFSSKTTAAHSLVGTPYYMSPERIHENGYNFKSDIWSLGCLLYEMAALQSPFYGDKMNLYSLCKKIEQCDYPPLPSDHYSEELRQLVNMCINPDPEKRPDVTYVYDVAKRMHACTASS
UniProt Q9NVX2: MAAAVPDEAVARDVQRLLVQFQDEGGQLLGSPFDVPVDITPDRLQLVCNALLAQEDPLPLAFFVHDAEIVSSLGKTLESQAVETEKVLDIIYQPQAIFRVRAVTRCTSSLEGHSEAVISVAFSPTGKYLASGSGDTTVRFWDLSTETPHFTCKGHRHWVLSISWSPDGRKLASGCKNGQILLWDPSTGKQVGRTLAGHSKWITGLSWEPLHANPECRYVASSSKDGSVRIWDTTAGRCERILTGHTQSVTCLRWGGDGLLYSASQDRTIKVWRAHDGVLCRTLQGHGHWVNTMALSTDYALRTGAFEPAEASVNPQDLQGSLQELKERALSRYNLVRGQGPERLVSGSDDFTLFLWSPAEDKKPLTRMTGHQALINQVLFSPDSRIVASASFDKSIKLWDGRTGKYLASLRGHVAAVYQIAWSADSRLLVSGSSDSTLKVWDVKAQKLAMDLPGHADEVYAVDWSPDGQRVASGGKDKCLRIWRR
UniProt Q8N8Q9: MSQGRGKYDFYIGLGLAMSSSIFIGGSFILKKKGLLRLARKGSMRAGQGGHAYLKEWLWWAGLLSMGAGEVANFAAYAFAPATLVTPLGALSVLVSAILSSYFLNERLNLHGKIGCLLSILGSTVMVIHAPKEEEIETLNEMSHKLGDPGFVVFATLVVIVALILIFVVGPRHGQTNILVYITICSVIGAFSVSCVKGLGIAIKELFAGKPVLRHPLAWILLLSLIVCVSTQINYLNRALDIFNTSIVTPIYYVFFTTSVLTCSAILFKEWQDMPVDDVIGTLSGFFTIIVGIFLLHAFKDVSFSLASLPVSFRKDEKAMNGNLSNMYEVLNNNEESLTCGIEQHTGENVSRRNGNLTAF
UniProt Q8NEJ9: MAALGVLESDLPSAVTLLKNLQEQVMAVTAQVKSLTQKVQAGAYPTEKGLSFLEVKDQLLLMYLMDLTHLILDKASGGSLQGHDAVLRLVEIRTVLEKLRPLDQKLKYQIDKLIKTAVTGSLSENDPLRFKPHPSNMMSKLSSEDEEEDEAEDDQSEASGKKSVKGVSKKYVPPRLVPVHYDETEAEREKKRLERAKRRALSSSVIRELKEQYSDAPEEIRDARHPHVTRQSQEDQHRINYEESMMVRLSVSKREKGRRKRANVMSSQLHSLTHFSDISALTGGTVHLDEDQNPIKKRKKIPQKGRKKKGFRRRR
UniProt Q5JPE7: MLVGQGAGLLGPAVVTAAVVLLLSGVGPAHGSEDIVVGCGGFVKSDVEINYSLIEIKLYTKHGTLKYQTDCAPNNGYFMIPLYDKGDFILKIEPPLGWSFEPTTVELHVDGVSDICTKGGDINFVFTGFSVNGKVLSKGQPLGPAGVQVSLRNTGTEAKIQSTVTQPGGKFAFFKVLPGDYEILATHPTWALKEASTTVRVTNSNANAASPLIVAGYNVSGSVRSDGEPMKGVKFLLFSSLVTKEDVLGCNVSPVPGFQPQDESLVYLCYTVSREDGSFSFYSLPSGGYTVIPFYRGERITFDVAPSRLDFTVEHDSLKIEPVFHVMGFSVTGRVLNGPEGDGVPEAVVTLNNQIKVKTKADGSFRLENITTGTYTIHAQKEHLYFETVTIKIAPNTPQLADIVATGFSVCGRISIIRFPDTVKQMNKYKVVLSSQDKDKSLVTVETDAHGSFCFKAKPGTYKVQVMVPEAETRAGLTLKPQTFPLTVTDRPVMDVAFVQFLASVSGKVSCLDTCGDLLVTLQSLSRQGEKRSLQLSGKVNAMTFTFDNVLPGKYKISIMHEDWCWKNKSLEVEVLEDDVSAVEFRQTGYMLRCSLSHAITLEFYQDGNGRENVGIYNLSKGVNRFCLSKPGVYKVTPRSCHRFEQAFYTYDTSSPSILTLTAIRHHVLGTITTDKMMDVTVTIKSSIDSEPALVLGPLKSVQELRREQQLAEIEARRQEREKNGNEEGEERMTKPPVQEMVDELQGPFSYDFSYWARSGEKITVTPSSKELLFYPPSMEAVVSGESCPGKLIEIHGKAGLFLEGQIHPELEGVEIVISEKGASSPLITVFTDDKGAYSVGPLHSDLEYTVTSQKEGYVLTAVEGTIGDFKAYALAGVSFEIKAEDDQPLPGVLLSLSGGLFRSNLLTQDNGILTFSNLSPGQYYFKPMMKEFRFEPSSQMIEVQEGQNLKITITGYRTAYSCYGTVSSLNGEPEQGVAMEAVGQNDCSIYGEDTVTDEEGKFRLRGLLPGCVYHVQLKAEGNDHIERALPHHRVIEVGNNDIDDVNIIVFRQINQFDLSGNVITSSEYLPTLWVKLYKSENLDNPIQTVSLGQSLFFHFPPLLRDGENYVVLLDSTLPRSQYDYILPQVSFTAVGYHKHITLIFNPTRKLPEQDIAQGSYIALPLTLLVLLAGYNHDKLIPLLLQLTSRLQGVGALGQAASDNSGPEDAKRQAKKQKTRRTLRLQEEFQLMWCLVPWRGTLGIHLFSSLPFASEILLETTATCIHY

Experiments:
Assay in all cases: log2 fold change, soluble protein after heating vs DMSO (PISA); higher = thermal stabilisation; K562 cells, 10 uM, 30 min; active = over 0.2 and 3.5 SD of the protein, either way, in both replicates (recomputed)
[1] = compound: CC1=C(C=C(C=C1)NC(=O)C2=CC(=CC=C2)C(C)(C)C#N)NC3=CC4=C(C=C3)N=CN(C4=O)C
In short: (§1)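 K562 cells at 2×10^6 cells/mL were given 10 μM compound for 30 min. Aliquots then went through 3 min of heating across 48°C-58°C, were pooled, and were extracted in PBS with 0.5% NP-40 at 4°C, and the supernatant after 21,000xg for 90 min was quantified by TMTpro 16plex LC-MS/MS with channel sums equalised. Thermal stability relative to control samples, from duplicates, is given as log2 fold change.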

[2] = compound: CC1=C(C=C(C=C1)NC(=O)C2=CC(=CC=C2)N(C)C)NC(=O)C3=CC=C(C=C3)O
In short: as §1

[3] = compound: CC1=CC=C(C=C1)SC2=C3C=C(SC3=CN=C2)C(=O)N
In short: as §1

[4] = compound: CC1=NC(=CC=C1)C2=C(N=C(N2)C(C)(C)C)C3=CC4=NC=CN=C4C=C3
In short: as §1

[5] = compound: CCCCN(Cc1ccc(C(=O)NO)cc1)C(=O)Nc1ccccc1 [Nexturastat A]
In short: as §1

[6] = compound: CCCS(=O)(=O)Nc1ccc(F)c(C(=O)c2c[nH]c3ncc(-c4ccc(Cl)cc4)cc23)c1F [vemurafenib]
In short: as §1

[7] = compound: CCCS(=O)(=O)Nc1ccc(F)c(C(=O)c2c[nH]c3ncc(Cl)cc23)c1F
In short: as §1

[8] = compound: CCCc1cc(C)[nH]c(=O)c1CNC(=O)c1cc(-c2ccnc(N3CCN(C)CC3)c2)cc2c1cnn2C(C)C
In short: as §1

[9] = compound: CCN(CC)Cc1ccc2cc(COC(=O)Nc3ccc(C(=O)NO)cc3)ccc2c1 [givinostat]
In short: as §1

[10] = compound: CCN(CCCOc1ccc2c(Nc3cc(CC(=O)Nc4cccc(F)c4)[nH]n3)ncnc2c1)CCOP(=O)(O)O [barasertib]
In short: as §1

[11] = compound: CC[C@@H]1C(=O)N(C)c2cnc(Nc3ccc(C(=O)NC4CCN(C)CC4)cc3OC)nc2N1C1CCCC1
In short: as §1

[12] = compound: CC[C@@H]1C(=O)N(C)c2cnc(Nc3ccc(C(=O)N[C@H]4CC[C@H](N5CCN(CC6CC6)CC5)CC4)cc3OC)nc2N1C(C)C [volasertib]
In short: as §1

[13] = compound: CC[C@H](C)N1C=C(C2=C(C=C(C=C21)C3=CN=C(C=C3)N4CCNCC4)C(=O)NCC5=C(C=C(NC5=O)C)C)C
In short: as §1

[14] = compound: CC[C@H](C)[C@@H](C(=O)N[C@@H]([C@@H](C)O)C(=O)N[C@@H](CC(C)C)C(=O)[C@]1(CO1)C)NC(=O)[C@H]([C@@H](C)CC)N(C)C(=O)C [epoxomicin]
In short: as §1

[15] = compound: CCn1c(C(=O)N(C2CC2)C2CC2)cc2c3c(ncn3C)c(Nc3cc(C)n(C)n3)nc21
In short: as §1

[16] = compound: CCn1cc(-c2ccnc3[nH]c(-c4cccc(CN(C)C)c4)cc23)c(-c2ccc(NC(=O)N(C)C)cc2)n1
In short: as §1

[17] = compound: CN(C)CC(=O)Nc1ccc2[nH]c(=O)c3ccccc3c2c1
In short: as §1

[18] = compound: CN(CCOC1=CC=C(C=C1)C[C@H]2C(=O)NC(=O)S2)C3=CC=CC=N3 (racemic) [rosiglitazone]
In short: as §1

[19] = compound: CN1C2=C(C3=C1C(=O)N(N=C3)CC4=CC(=CC=C4)N)SC(=C2)S(=O)C
In short: as §1

[20] = compound: CN1CCC(CNc2ccc3ncc(-c4cccc(OC(F)(F)F)c4)n3n2)CC1
In short: as §1

Measured: log2 fold change

NLRP2 (UniProt Q9NX02)
inactive: [1] -0.071 | [2] -0.008 | [3] 0.054 | [4] -0.019 | [5] 0.145 | [6] 0.075 | [7] 0.078 | [8] 0.087 | [9] 0.062 | [10] 0.005 | [11] -0.114 | [12] -0.506 | [13] 0.066 | [14] -0.063 | [15] -0.052 | [16] -0.044 | [17] -0.005 | [18] -0.004 | [19] 0.081 | [20] -0.02

NR2F6 (UniProt P10588)
inactive: [1] 0.044 | [2] 0.039 | [3] 0.022 | [4] -0.033 | [5] -0.103 | [6] -0.004 | [7] 0.071 | [8] 0.054 | [9] -0.103 | [10] -0.107 | [11] 0.123 | [12] -0.011 | [13] 0.141 | [14] 0.005 | [15] 0.073 | [16] -0.026 | [17] 0.04 | [18] 0.044 | [19] 0.02 | [20] 0.035

NSFL1C isoform 5 (UniProt Q9UNZ2)
inactive: [1] 0.109 | [2] -0.008 | [3] 0.025 | [4] 0.157 | [5] -0.13 | [6] 0.01 | [7] 0.053 | [8] 0.022 | [9] -0.032 | [10] 0.015 | [11] 0.006 | [12] -0.001 | [13] 0.01 | [14] 0.037 | [15] -0.002 | [16] -0.016 | [17] 0.002 | [18] 0.044 | [19] -0.034 | [20] 0.007

NFYA (UniProt P23511)
inactive: [1] -0.034 | [2] 0.026 | [3] -0.004 | [4] -0.055 | [5] -0.163 | [6] -0.021 | [7] -0.073 | [8] 0.031 | [9] 0.046 | [10] -0.051 | [11] 0.009 | [12] 0.055 | [13] 0.023 | [14] 0.16 | [15] 0.049 | [16] -0.027 | [17] -0.019 | [18] -0.055 | [19] -0.018 | [20] -0.02

NPL (UniProt Q9BXD5)
inactive: [1] 0.047 | [2] 0.237 | [3] 0.022 | [4] 0.017 | [5] -0.095 | [6] -0.073 | [7] 0.009 | [8] -0.025 | [9] 0.029 | [10] 0.012 | [11] 0.131 | [12] -0.291 | [13] -0.023 | [14] -0.197 | [15] -0.057 | [16] 0.057 | [17] -0.032 | [18] 0.024 | [19] -0.038 | [20] -0.098

NENF (UniProt Q9UMX5)
inactive: [1] 0.005 | [2] -0.01 | [3] -0.035 | [4] -0.011 | [5] -0.105 | [6] -0.002 | [7] -0.057 | [8] -0.008 | [9] 0.057 | [10] 0.036 | [11] 0.022 | [12] 0.028 | [13] -0.026 | [14] -0.04 | [15] 0.016 | [16] 0.04 | [17] -0.019 | [18] -0.005 | [19] -0.066 | [20] 0.056

NPTN (UniProt Q9Y639)
inactive: [1] 0.011 | [2] 0.001 | [3] -0.033 | [4] -0.037 | [5] -0.053 | [6] 0.013 | [7] -0.086 | [8] -0.041 | [9] 0.047 | [10] 0.006 | [11] 0.038 | [12] 0.084 | [13] -0.043 | [14] -0.019 | [15] 0.005 | [16] -0.019 | [17] -0.034 | [18] 0.021 | [19] -0.084 | [20] 0.118

NIBAN2 (UniProt Q96TA1)
inactive: [1] -0.025 | [2] -0.009 | [3] 0.018 | [4] -0.018 | [5] -0.021 | [6] 0.014 | [7] 0.025 | [8] 0.019 | [9] 0.016 | [10] 0.018 | [11] -0.037 | [12] -0.102 | [13] 0.043 | [14] 0.039 | [15] -0.021 | [16] -0.023 | [17] -0.017 | [18] 0.011 | [19] -0.042 | [20] -0.018

NIF3L1 (UniProt Q9GZT8)
inactive: [1] -0.066 | [2] 0.003 | [3] -0.029 | [4] -0.015 | [5] 0.031 | [6] 0.003 | [7] -0.044 | [8] -0.019 | [9] -0.02 | [10] 0.018 | [11] 0.037 | [12] 0.083 | [13] -0.048 | [14] -0.031 | [15] 0.024 | [16] -0.016 | [17] -0.01 | [18] -0.062 | [19] -0.083 | [20] -0.012

NME6 (UniProt O75414)
inactive: [1] 0.04 | [2] -0.07 | [3] 0.023 | [4] 0.039 | [5] 0.053 | [6] 0.116 | [7] -0.057 | [8] -0.068 | [9] -0.014 | [10] 0.015 | [11] 0.07 | [12] -0.034 | [13] -0.014 | [14] -0.036 | [15] -0.031 | [16] -0.073 | [17] -0.006 | [18] -0.011 | [19] -0.006 | [20] 0.045

NEK9 (UniProt Q8TD19)
inactive: [1] -0.003 | [2] 0.037 | [3] -0.01 | [4] -0.012 | [5] 0.005 | [6] -0.026 | [7] 0.031 | [8] 0.029 | [9] 0.013 | [10] 0.039 | [11] -0.05 | [12] -0.066 | [13] 0.047 | [14] 0.008 | [15] 0.015 | [16] -0.032 | [17] 0.001 | [18] 0.073 | [19] -0.007 | [20] -0.092

NRIP3 (UniProt Q9NQ35)
inactive: [1] -0.073

NIPSNAP1 (UniProt Q9BPW8)
inactive: [1] 0.051 | [2] -0.003 | [3] 0.032 | [4] 0.041 | [5] -0.041 | [6] 0.109 | [7] 0.053 | [8] -0.016 | [9] -0.047 | [10] -0.018 | [11] -0.027 | [12] -0.025 | [13] -0.009 | [14] -0.024 | [15] -0.031 | [16] -0.067 | [17] 0.083 | [18] -0.019 | [19] -0.094 | [20] -0.054

NEK7 (UniProt Q8TDX7)
inactive: [1] 0.022 | [2] 0.021 | [3] 0.013 | [4] 0.091 | [5] -0.104 | [6] -0.017 | [7] 0.035 | [8] 0.027 | [9] 0.038 | [10] 0.021 | [11] -0.05 | [12] -0.055 | [13] 0.086 | [14] 0.046 | [15] -0.025 | [16] -0.027 | [17] -0.054 | [18] 0.034 | [19] -0.028 | [20] -0.062

NLE1 (UniProt Q9NVX2)
inactive: [1] 0.014 | [2] -0.019 | [3] 0.039 | [4] 0.014 | [5] -0.102 | [6] 0.018 | [7] 0.022 | [8] -0.028 | [9] -0.038 | [10] -0.001 | [11] -0.018 | [12] -0.056 | [13] -0.029 | [14] 0.016 | [15] 0.018 | [16] -0.027 | [17] 0.014 | [18] 0.028 | [19] -0.096 | [20] 0.04

Taken from the entries so far (two entries):
NIF3L1 (UniProt Q9GZT8)
inactive: [1] -0.066 | [2] 0.003 | [3] -0.029 | [4] -0.015 | [5] 0.031 | [6] 0.003 | [7] -0.044 | [8] -0.019 | [9] -0.02 | [10] 0.018 | [11] 0.037 | [12] 0.083 | [13] -0.048 | [14] -0.031 | [15] 0.024 | [16] -0.016 | [17] -0.01 | [18] -0.062 | [19] -0.083 | [20] -0.012

NME6 (UniProt O75414)
inactive: [1] 0.04 | [2] -0.07 | [3] 0.023 | [4] 0.039 | [5] 0.053 | [6] 0.116 | [7] -0.057 | [8] -0.068 | [9] -0.014 | [10] 0.015 | [11] 0.07 | [12] -0.034 | [13] -0.014 | [14] -0.036 | [15] -0.031 | [16] -0.073 | [17] -0.006 | [18] -0.011 | [19] -0.006 | [20] 0.045

Later entries.

NIPA2 (UniProt Q8N8Q9)
inactive: [1] -0.181 | [2] -0.058 | [3] -0.024 | [4] 0.044 | [5] -0.057 | [6] -0.019 | [7] 0.018 | [8] -0.147 | [9] 0.031 | [10] -0.016 | [11] 0 | [12] -0.051 | [13] 0.033 | [14] 0.063 | [15] -0.008 | [16] -0.029 | [17] 0.177 | [18] -0.095 | [19] -0.073 | [20] -0.019

NGDN (UniProt Q8NEJ9)
inactive: [1] -0.091 | [2] 0.087

NOMO2 (UniProt Q5JPE7)
inactive: [1] 0.019 | [2] -0.014 | [3] 0.006 | [4] 0.002 | [5] -0.015 | [6] 0.003 | [7] 0.014 | [8] 0.025 | [9] 0.025 | [10] -0.004 | [11] 0.002 | [12] -0.073 | [13] 0.011 | [14] -0.009 | [15] 0 | [16] 0.011 | [17] 0.004 | [18] 0.001 | [19] -0.003 | [20] 0.057
